Laboratory results published in the supplement of paper PMC8960247.

Test system: 621-102 (TSC2-deficient)
Assay: relative viability vs DMSO (fraction); higher = less cytotoxic
Conditions: serum: 0.1% FBS, 72 h

Structure (SMILES)	relative viability (0.0128 nM)	relative viability (0.064 nM)	relative viability (0.32 nM)	relative viability (1.6 nM)	relative viability (8 nM)	relative viability (40 nM)	relative viability (200 nM)	relative viability (1000 nM)	relative viability (5000 nM)
COC(=O)Nc1nc2cc(Sc3ccccc3)ccc2[nH]1 [Fenbendazole]	1.03	0.934	0.951	1.02	0.847	0.087	0.0336	0.0482	0.0283
CC(C)C(=O)Oc1ccc(CO)cc1[C@H](CCN(C(C)C)C(C)C)c1ccccc1 [Fesoterodine Fumarate]	1.15	1.08	0.897	0.254	0.803	0.78	0.325	0.542	0.682
CC(C)(C)NC(=O)[C@H]1CC[C@H]2[C@@H]3CC[C@H]4NC(=O)C=C[C@]4(C)[C@H]3CC[C@]12C [Finasteride]	0.738	0.674	0.747	0.733	0.622	0.774	0.558	0.522	0.656
CN1CC[C@H](c2c(O)cc(O)c3c(=O)cc(-c4ccccc4Cl)oc23)[C@H](O)C1 [Flavopiridol (Alvocidib)]	0.619	0.719	0.603	0.589	0.604	0.365	0.0127	0.0118	0.0143
CN1CC[C@H](c2c(O)cc(O)c3c(=O)cc(-c4ccccc4Cl)oc23)[C@H](O)C1 [Flavopiridol hydrochloride]	0.735	0.695	0.718	0.659	0.656	0.552	0.101	0.00782	0.0114
CN1CCN(c2c(F)cc3c(=O)c(C(=O)O)cn(CCF)c3c2F)CC1 [Fleroxacin]	0.958	0.358	0.502	0.841	0.292	0.132	0.166	0.189	0.562
Nc1nc(=O)[nH]cc1F [Flucytosine]	0.754	0.885	0.842	0.675	0.716	0.982	0.819	0.687	0.738
Nc1nc(F)nc2c1ncn2[C@@H]1O[C@H](COP(=O)(O)O)[C@@H](O)[C@@H]1O [Fludarabine Phosphate]	0.754	0.814	0.662	0.745	0.652	0.766	0.787	0.706	0.428
Nc1nc(F)nc2c1ncn2[C@@H]1O[C@H](CO)[C@@H](O)[C@@H]1O [Fludarabine]	1.35	1.37	1.44	0.832	0.717	0.607	1.13	1.05	0.238
CNCCC(Oc1ccc(C(F)(F)F)cc1)c1ccccc1 (centres undefined) [Fluoxetine HCl]	0.676	0.674	0.734	0.797	0.786	0.753	0.781	0.7	0.776
CC(C)n1c(/C=C/C(O)CC(O)CC(=O)O)c(-c2ccc(F)cc2)c2ccccc21 (centres undefined) [Fluvastatin Sodium]	0.835	0.79	0.79	0.755	0.777	0.758	0.796	0.698	0.814
C[C@]12CCC(=O)C(O)=C1CC[C@@H]1[C@@H]2CC[C@]2(C)C(=O)CC[C@@H]12 [Formestane]	1.05	0.971	0.972	0.315	0.122	0.176	0.126	0.0894	0.816
COc1cc(Nc2ncc(F)c(Nc3ccc4c(n3)N(COP(=O)(O)O)C(=O)C(C)(C)O4)n2)cc(OC)c1OC [Fostamatinib]	0.835	0.787	0.926	0.9	0.882	0.742	0.927	0.744	0.703
C[C@]12CC[C@@H]3c4ccc(O)cc4C[C@@H](CCCCCCCCC[S+]([O-])CCCC(F)(F)C(F)(F)F)[C@H]3[C@@H]1CC[C@@H]2O (some centres undefined) [Fulvestrant]	1.01	0.968	0.891	0.878	0.807	0.847	0.771	0.729	0.626
CS(=O)(=O)c1ccc(C(=O)Nc2ccc(Cl)c(-c3ccccn3)c2)c(Cl)c1 [GDC-0449]	0.84	0.969	0.848	0.849	0.813	0.783	0.764	0.703	0.523
OCCn1cc(-c2ccc3c(c2)CC/C3=N\O)c(-c2ccncc2)n1 [GDC-0879]	0.819	0.863	0.887	0.889	0.862	0.875	0.708	0.867	0.843
Cc1c(CN2CCN(C(=O)[C@H](C)O)CC2)sc2c(N3CCOCC3)nc(-c3cnc(N)nc3)nc12 [GDC-0980]	0.833	0.86	0.88	0.933	0.912	0.882	0.814	0.655	0.42
O=C(O)Cc1cccc(OCCCN(Cc2cccc(C(F)(F)F)c2Cl)CC(c2ccccc2)c2ccccc2)c1 [GW3965]	0.949	0.892	0.912	0.82	0.806	0.683	0.58	0.387	0.012
CC[N+](CC)(CC)CCOc1cccc(OCC[N+](CC)(CC)CC)c1OCC[N+](CC)(CC)CC [Gallamine Triethiodide]	0.695	0.751	0.705	0.709	0.321	0.657	0.767	0.778	0.785
COc1cc2ncnc(Nc3ccc(F)c(Cl)c3)c2cc1OCCCN1CCOCC1 [Gefitinib (ZD1839)]	0.734	0.941	0.882	1.05	0.824	0.865	0.899	0.747	0.558
COC1=C2C[C@@H](C)C[C@H](OC)[C@H](O)[C@@H](C)/C=C(\C)[C@H](OC(N)=O)[C@@H](OC)/C=C\C=C(/C)C(=O)NC(=CC1=O)C2=O [Geldanamycin]	0.617	0.639	0.726	0.609	0.235	0.0444	0.0269	0.0105	0.00804

Record cards, as listed above. Order of values: relative viability (0.0128 nM)	relative viability (0.064 nM)	relative viability (0.32 nM)	relative viability (1.6 nM)	relative viability (8 nM)	relative viability (40 nM)	relative viability (200 nM)	relative viability (1000 nM)	relative viability (5000 nM)
Nc1nc(F)nc2c1ncn2[C@@H]1O[C@H](COP(=O)(O)O)[C@@H](O)[C@@H]1O [Fludarabine Phosphate] is entered as 0.754	0.814	0.662	0.745	0.652	0.766	0.787	0.706	0.428
CN1CCN(c2c(F)cc3c(=O)c(C(=O)O)cn(CCF)c3c2F)CC1 [Fleroxacin] is entered as 0.958	0.358	0.502	0.841	0.292	0.132	0.166	0.189	0.562

Structures can show the parent of a compound that is named as a salt. This is a noisy data set.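 Immortalized human renal angiomyolipoma cells with an empty vector keep TSC2 lost. A luminescent ATP assay measured viability, normalized per plate to vehicle-treated wells, in low-serum medium where TSC2-rescued cells fail to grow.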
